{
  "source": "the supplement of paper PMC8728848",
  "binders": {"B1": {"name": "Aap lectin (Staphylococcus epidermidis) (protein)", "chain": "VNLNYSSPFMSLLSMPADSSSNNTKNTIDIPPTTVKGRDNYDFYGRVDIESNPTDLNATNLTRYNYGQPPGTTTAGAVQFKNQVSFDKDFDFNIRVANNRQSNTTGADGWGFMFSKKDGDDFLKNGGILREKGTPSAAGFRIDTGYYNNDPLDKIQKQAGQGYRGYGTFVKNDSQGNTSKVGSGTPSTDFLNYADNTTNDLDGKFHGQKLNNVNLKYNASNQTFTATYAGKTWTATLSELGLSPTDSYNFLVTSS"}},
  "test_in_all_cases": "glycan array binding signal (z-score within array); higher = stronger binding",
  "details_in_all_cases": "glycan notation: IUPAC condensed, linker removed",
  "key": {"[1]": {"biological_target": "Gal(b1-4)GlcNAc(b1-3)Gal(b1-4)Glc", "in_short": "(§1)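 Negative Z-scores can be read as non-binding. The Z-score is calculated within each array and then averaged across arrays of one protein sequence at different concentrations or buffers and across linkers. Arrays, 3228 in all, were curated from the Consortium for Functional Glycomics database and kept only where the protein sequence was available.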"}, "[2]": {"biological_target": "Gal(b1-4)GlcNAc(b1-3)Gal(b1-4)GlcNAc", "in_short": "as §1"}, "[3]": {"biological_target": "Gal(b1-4)GlcNAc(b1-3)Gal(b1-4)GlcNAc(b1-2)Man(a1-3)[Gal(b1-4)GlcNAc(b1-3)Gal(b1-4)GlcNAc(b1-2)Man(a1-6)]Man(b1-4)GlcNAc(b1-4)GlcNAc", "in_short": "as §1"}, "[4]": {"biological_target": "Gal(b1-4)GlcNAc(b1-3)Gal(b1-4)GlcNAc(b1-2)Man(a1-3)[Gal(b1-4)GlcNAc(b1-3)Gal(b1-4)GlcNAc(b1-2)Man(a1-6)]Man(b1-4)GlcNAc(b1-4)[Fuc(a1-6)]GlcNAc", "in_short": "as §1"}, "[5]": {"biological_target": "Gal(b1-4)GlcNAc(b1-3)Gal(b1-4)GlcNAc(b1-2)[Gal(b1-4)GlcNAc(b1-3)Gal(b1-4)GlcNAc(b1-6)]Man(a1-6)[Gal(b1-4)GlcNAc(b1-3)Gal(b1-4)GlcNAc(b1-2)Man(a1-3)]Man(b1-4)GlcNAc(b1-4)GlcNAc", "in_short": "as §1"}, "[6]": {"biological_target": "Gal(b1-4)GlcNAc(b1-3)Gal(b1-4)GlcNAc(b1-2)[Gal(b1-4)GlcNAc(b1-3)Gal(b1-4)GlcNAc(b1-6)]Man(a1-6)[Gal(b1-4)GlcNAc(b1-3)Gal(b1-4)GlcNAc(b1-2)Man(a1-3)]Man(b1-4)GlcNAc(b1-4)[Fuc(a1-6)]GlcNAc", "in_short": "as §1"}, "[7]": {"biological_target": "Gal(b1-4)GlcNAc(b1-3)Gal(b1-4)GlcNAc(b1-3)Gal(b1-4)GlcNAc", "in_short": "as §1"}, "[8]": {"biological_target": "Gal(b1-4)GlcNAc(b1-3)Gal(b1-4)GlcNAc(b1-3)Gal(b1-4)GlcNAc(b1-2)Man(a1-3)[Gal(b1-4)GlcNAc(b1-3)Gal(b1-4)GlcNAc(b1-3)Gal(b1-4)GlcNAc(b1-2)Man(a1-6)]Man(b1-4)GlcNAc(b1-4)GlcNAc", "in_short": "as §1"}, "[9]": {"biological_target": "Gal(b1-4)GlcNAc(b1-3)Gal(b1-4)GlcNAc(b1-3)Gal(b1-4)GlcNAc(b1-2)Man(a1-3)[Gal(b1-4)GlcNAc(b1-3)Gal(b1-4)GlcNAc(b1-3)Gal(b1-4)GlcNAc(b1-2)Man(a1-6)]Man(b1-4)GlcNAc(b1-4)[Fuc(a1-6)]GlcNAc", "in_short": "as §1"}, "[10]": {"biological_target": "Gal(b1-4)GlcNAc(b1-3)Gal(b1-4)GlcNAc(b1-3)Gal(b1-4)GlcNAc(b1-2)[Gal(b1-4)GlcNAc(b1-3)Gal(b1-4)GlcNAc(b1-3)Gal(b1-4)GlcNAc(b1-6)]Man(a1-6)[Gal(b1-4)GlcNAc(b1-3)Gal(b1-4)GlcNAc(b1-3)Gal(b1-4)GlcNAc(b1-2)Man(a1-3)]Man(b1-4)GlcNAc(b1-4)[Fuc(a1-6)]GlcNAc", "in_short": "as §1"}, "[11]": {"biological_target": "Gal(b1-4)GlcNAc(b1-3)Gal(b1-4)GlcNAc(b1-3)Gal(b1-4)GlcNAc(b1-3)Gal(b1-4)GlcNAc(b1-2)Man(a1-3)[Gal(b1-4)GlcNAc(b1-3)Gal(b1-4)GlcNAc(b1-3)Gal(b1-4)GlcNAc(b1-3)Gal(b1-4)GlcNAc(b1-2)Man(a1-6)]Man(b1-4)GlcNAc(b1-4)GlcNAc", "in_short": "as §1"}, "[12]": {"biological_target": "Gal(b1-4)GlcNAc(b1-3)Gal(b1-4)GlcNAc(b1-3)Gal(b1-4)GlcNAc(b1-3)Gal(b1-4)GlcNAc(b1-2)Man(a1-3)[Gal(b1-4)GlcNAc(b1-3)Gal(b1-4)GlcNAc(b1-3)Gal(b1-4)GlcNAc(b1-3)Gal(b1-4)GlcNAc(b1-2)Man(a1-6)]Man(b1-4)GlcNAc(b1-4)[Fuc(a1-6)]GlcNAc", "in_short": "as §1"}, "[13]": {"biological_target": "Gal(b1-4)GlcNAc(b1-3)Gal(b1-4)GlcNAc(b1-3)Gal(b1-4)GlcNAc(b1-3)Gal(b1-4)GlcNAc(b1-2)[Gal(b1-4)GlcNAc(b1-3)Gal(b1-4)GlcNAc(b1-3)Gal(b1-4)GlcNAc(b1-3)Gal(b1-4)GlcNAc(b1-6)]Man(a1-6)[Gal(b1-4)GlcNAc(b1-3)Gal(b1-4)GlcNAc(b1-3)Gal(b1-4)GlcNAc(b1-3)Gal(b1-4)GlcNAc(b1-2)Man(a1-3)]Man(b1-4)GlcNAc(b1-4)[Fuc(a1-6)]GlcNAc", "in_short": "as §1"}, "[14]": {"biological_target": "Gal(b1-4)GlcNAc(b1-3)Gal(b1-4)GlcNAc(b1-3)Gal(b1-4)GlcNAc(b1-3)Gal(b1-4)GlcNAc(b1-3)Gal(b1-4)GlcNAc(b1-2)Man(a1-3)[Gal(b1-4)GlcNAc(b1-3)Gal(b1-4)GlcNAc(b1-3)Gal(b1-4)GlcNAc(b1-3)Gal(b1-4)GlcNAc(b1-3)Gal(b1-4)GlcNAc(b1-2)Man(a1-6)]Man(b1-4)GlcNAc(b1-4)GlcNAc", "in_short": "as §1"}, "[15]": {"biological_target": "Gal(b1-4)GlcNAc(b1-3)Gal(b1-4)GlcNAc(b1-3)Gal(b1-4)GlcNAc(b1-3)Gal(b1-4)GlcNAc(b1-3)Gal(b1-4)GlcNAc(b1-2)Man(a1-3)[Gal(b1-4)GlcNAc(b1-3)Gal(b1-4)GlcNAc(b1-3)Gal(b1-4)GlcNAc(b1-3)Gal(b1-4)GlcNAc(b1-3)Gal(b1-4)GlcNAc(b1-2)Man(a1-6)]Man(b1-4)GlcNAc(b1-4)[Fuc(a1-6)]GlcNAc", "in_short": "as §1"}, "[16]": {"biological_target": "Gal(b1-4)GlcNAc(b1-3)Gal(b1-4)GlcNAc(b1-3)Gal(b1-4)GlcNAc(b1-3)Gal(b1-4)GlcNAc(b1-3)Gal(b1-4)GlcNAc(b1-2)[Gal(b1-4)GlcNAc(b1-3)Gal(b1-4)GlcNAc(b1-3)Gal(b1-4)GlcNAc(b1-3)Gal(b1-4)GlcNAc(b1-3)Gal(b1-4)GlcNAc(b1-6)]Man(a1-6)[Gal(b1-4)GlcNAc(b1-3)Gal(b1-4)GlcNAc(b1-3)Gal(b1-4)GlcNAc(b1-3)Gal(b1-4)GlcNAc(b1-3)Gal(b1-4)GlcNAc(b1-2)Man(a1-3)]Man(b1-4)GlcNAc(b1-4)[Fuc(a1-6)]GlcNAc", "in_short": "as §1"}, "[17]": {"biological_target": "Gal(b1-4)GlcNAc(b1-3)Gal(b1-4)GlcNAc(b1-3)Gal(b1-4)GlcNAc(b1-3)Gal(b1-4)GlcNAc(b1-3)Gal(b1-4)GlcNAc(b1-3)Gal(b1-4)GlcNAc(b1-2)Man(a1-3)[Gal(b1-4)GlcNAc(b1-3)Gal(b1-4)GlcNAc(b1-3)Gal(b1-4)GlcNAc(b1-3)Gal(b1-4)GlcNAc(b1-3)Gal(b1-4)GlcNAc(b1-3)Gal(b1-4)GlcNAc(b1-2)Man(a1-6)]Man(b1-4)GlcNAc(b1-4)GlcNAc", "in_short": "as §1"}, "[18]": {"biological_target": "Gal(b1-4)GlcNAc(b1-3)Gal(b1-4)GlcNAc(b1-3)GalNAc", "in_short": "as §1"}, "[19]": {"biological_target": "Gal(b1-4)GlcNAc(b1-3)Gal(b1-4)GlcNAc(b1-3)[Gal(b1-4)GlcNAc(b1-3)Gal(b1-4)GlcNAc(b1-6)]GalNAc", "in_short": "as §1"}},
  "note": "Some of the results follow.",
  "data": [
    {"binder": "B1", "values": [
      {"measurement": "glycan array binding signal (z-score)", "setting": "[1]", "value": 0.463},
      {"measurement": "glycan array binding signal (z-score)", "setting": "[2]", "value": -0.845},
      {"measurement": "glycan array binding signal (z-score)", "setting": "[3]", "value": 0.31},
      {"measurement": "glycan array binding signal (z-score)", "setting": "[4]", "value": 0.856},
      {"measurement": "glycan array binding signal (z-score)", "setting": "[5]", "value": -0.781},
      {"measurement": "glycan array binding signal (z-score)", "setting": "[6]", "value": 2.32},
      {"measurement": "glycan array binding signal (z-score)", "setting": "[7]", "value": -0.533},
      {"measurement": "glycan array binding signal (z-score)", "setting": "[8]", "value": 1.26},
      {"measurement": "glycan array binding signal (z-score)", "setting": "[9]", "value": 2.92},
      {"measurement": "glycan array binding signal (z-score)", "setting": "[10]", "value": 1.63},
      {"measurement": "glycan array binding signal (z-score)", "setting": "[11]", "value": 2.16},
      {"measurement": "glycan array binding signal (z-score)", "setting": "[12]", "value": 0.453},
      {"measurement": "glycan array binding signal (z-score)", "setting": "[13]", "value": 0.345},
      {"measurement": "glycan array binding signal (z-score)", "setting": "[14]", "value": 1.14},
      {"measurement": "glycan array binding signal (z-score)", "setting": "[15]", "value": 0.727},
      {"measurement": "glycan array binding signal (z-score)", "setting": "[16]", "value": -0.104},
      {"measurement": "glycan array binding signal (z-score)", "setting": "[17]", "value": 1.53},
      {"measurement": "glycan array binding signal (z-score)", "setting": "[18]", "value": 0.776},
      {"measurement": "glycan array binding signal (z-score)", "setting": "[19]", "value": 2.7}
    ]}
  ]
}
